Experiment [1] concerns the target argonaute-2 (AGO2) (human (endogenous in A549)) (UniProt Q9UKV8). Description: co-IP; A549 nuclear extract (0.5-1 mg total protein) with 1.5 ug anti-AGO2 or anti-GW182 antibody on Protein G Plus/Protein A resin, 4°C for 4 h; washed 4x with 20 mM Tris pH 7.5, 0.4 M NaCl, 2 mM MgCl2, 0.05% NP-40, 0.025% SDS; western blot with anti-AGO2 or anti-GW182. For orientation: In western blotting, separated proteins are transferred to a membrane and probed.

Sequences of proteins named here, by UniProt entry; tags and fusion partners are left off.
UniProt Q9UKV8: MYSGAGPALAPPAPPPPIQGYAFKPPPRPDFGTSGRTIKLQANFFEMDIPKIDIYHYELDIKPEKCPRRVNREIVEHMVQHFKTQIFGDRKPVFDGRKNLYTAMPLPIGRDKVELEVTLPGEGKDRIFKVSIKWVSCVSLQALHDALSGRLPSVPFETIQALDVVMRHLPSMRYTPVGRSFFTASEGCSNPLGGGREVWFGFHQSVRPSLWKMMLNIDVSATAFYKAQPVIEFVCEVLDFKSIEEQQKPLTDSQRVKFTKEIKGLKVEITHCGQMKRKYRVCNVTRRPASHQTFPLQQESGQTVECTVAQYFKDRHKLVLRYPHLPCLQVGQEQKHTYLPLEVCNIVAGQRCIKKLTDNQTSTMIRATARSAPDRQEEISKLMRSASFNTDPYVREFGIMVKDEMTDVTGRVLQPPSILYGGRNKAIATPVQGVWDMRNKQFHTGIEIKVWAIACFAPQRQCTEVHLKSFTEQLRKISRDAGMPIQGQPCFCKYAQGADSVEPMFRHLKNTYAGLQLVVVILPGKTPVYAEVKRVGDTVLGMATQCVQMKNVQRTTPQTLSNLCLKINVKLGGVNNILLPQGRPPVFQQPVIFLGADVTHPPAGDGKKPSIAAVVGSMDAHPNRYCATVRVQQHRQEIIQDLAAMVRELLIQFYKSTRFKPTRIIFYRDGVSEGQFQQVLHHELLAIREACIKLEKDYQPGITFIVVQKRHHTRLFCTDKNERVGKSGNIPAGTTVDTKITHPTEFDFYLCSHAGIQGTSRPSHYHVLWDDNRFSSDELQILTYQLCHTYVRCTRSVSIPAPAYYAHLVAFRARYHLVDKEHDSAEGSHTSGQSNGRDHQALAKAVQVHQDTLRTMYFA
UniProt Q8NDV7: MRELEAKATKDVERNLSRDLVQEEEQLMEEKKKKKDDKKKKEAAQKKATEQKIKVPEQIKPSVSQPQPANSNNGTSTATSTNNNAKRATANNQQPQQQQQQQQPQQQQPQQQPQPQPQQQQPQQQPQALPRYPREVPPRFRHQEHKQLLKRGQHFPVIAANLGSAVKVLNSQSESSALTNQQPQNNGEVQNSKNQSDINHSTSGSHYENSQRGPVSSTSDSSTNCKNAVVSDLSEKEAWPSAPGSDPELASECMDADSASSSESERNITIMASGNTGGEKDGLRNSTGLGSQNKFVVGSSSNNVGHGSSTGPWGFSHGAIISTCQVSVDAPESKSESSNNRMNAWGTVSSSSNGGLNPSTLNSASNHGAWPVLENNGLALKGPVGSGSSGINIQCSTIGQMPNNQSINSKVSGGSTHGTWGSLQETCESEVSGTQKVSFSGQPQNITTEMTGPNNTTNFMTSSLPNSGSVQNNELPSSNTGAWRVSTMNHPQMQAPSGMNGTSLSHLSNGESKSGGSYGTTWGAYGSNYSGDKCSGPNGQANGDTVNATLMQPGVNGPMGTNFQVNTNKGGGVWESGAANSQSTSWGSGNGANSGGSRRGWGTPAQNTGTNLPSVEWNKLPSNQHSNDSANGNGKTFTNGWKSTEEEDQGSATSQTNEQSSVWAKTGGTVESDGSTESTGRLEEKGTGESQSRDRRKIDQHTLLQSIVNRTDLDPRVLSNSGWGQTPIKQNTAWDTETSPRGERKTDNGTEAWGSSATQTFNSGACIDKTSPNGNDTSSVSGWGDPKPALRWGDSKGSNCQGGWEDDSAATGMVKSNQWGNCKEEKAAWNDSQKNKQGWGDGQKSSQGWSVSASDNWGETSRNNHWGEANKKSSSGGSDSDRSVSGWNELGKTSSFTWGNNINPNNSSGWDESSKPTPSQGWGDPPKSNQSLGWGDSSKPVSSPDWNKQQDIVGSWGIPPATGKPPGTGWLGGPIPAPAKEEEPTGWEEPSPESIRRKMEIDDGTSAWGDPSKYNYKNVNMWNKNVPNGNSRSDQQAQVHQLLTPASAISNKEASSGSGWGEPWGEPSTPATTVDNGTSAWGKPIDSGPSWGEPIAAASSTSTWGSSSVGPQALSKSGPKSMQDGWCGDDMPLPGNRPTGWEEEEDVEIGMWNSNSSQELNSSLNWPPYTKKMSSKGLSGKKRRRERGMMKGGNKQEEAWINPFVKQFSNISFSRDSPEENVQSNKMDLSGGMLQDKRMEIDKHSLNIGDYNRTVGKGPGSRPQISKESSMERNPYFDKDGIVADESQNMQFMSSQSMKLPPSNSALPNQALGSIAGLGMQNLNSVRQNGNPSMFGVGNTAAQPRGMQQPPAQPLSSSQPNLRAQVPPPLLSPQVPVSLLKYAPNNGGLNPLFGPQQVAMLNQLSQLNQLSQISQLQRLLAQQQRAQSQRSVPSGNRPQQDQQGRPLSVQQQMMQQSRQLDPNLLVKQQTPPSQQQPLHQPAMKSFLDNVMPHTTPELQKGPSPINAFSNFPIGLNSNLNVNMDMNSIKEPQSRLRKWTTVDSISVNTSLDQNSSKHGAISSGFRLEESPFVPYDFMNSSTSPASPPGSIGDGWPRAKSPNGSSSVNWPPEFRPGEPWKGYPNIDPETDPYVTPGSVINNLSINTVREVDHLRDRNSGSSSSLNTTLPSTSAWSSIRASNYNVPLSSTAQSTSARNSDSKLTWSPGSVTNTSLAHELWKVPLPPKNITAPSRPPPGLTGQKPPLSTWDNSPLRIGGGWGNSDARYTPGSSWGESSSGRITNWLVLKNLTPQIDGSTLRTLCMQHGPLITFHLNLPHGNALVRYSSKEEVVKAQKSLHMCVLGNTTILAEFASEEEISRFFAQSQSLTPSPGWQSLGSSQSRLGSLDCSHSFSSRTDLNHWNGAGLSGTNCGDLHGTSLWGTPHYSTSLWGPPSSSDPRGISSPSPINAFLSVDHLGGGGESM

Experiment [2] has as its target GW182 (TNRC6A) (human (endogenous in A549)) (UniProt Q8NDV7). The description is as above.

Results are given in words; binding and its absence hold for the method and conditions named. Binding seen in cells or lysates may run through a third protein. Some entries that bind do so weakly or less than the wild type.

Turning to “GW182 (TNRC6A) (from UniProt Q8NDV7 1-1962)”, the binding result in experiment [1] is “binds”. As to “argonaute-2 (AGO2) (from UniProt Q9UKV8 1-859)”, the binding entry in experiment [2] is given as “binds”.

These data come from article PMC3905862.
